Results taken from PMC6376064.
Results are given in words; binding and its absence hold for the method and conditions named. In cells and extracts the contact can be indirect. Here binding means that the protein was enriched with, or labelled near, the bait; the list need not be complete. For some assays here: Tags and fused reporters may be left off the sequences shown.

Chains of the proteins cited; added tags and fusions are not shown.
UniProt Q13043: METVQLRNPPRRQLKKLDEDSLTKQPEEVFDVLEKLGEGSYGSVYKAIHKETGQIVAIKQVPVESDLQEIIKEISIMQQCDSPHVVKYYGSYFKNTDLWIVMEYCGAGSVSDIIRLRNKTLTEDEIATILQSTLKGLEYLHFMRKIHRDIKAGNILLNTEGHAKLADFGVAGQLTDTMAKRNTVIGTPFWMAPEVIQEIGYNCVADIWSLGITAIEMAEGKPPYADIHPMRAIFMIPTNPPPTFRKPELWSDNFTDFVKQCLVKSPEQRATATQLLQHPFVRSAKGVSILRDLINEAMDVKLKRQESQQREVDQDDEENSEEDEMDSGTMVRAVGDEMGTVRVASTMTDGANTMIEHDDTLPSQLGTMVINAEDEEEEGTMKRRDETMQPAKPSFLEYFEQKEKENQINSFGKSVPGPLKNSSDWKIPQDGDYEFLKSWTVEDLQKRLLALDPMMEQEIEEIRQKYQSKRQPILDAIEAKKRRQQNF

Experiments:
[1] = target: T1, Flag-tagged Mst2 (in THP1 macrophages) (UniProt Q13188); assay: affinity purification with mass spectrometry; Flag-tagged Mst1 or Mst2 immunoprecipitated from lysates of THP1 macrophages; gel segments digested with trypsin, mass spectrometry
T1 sequence: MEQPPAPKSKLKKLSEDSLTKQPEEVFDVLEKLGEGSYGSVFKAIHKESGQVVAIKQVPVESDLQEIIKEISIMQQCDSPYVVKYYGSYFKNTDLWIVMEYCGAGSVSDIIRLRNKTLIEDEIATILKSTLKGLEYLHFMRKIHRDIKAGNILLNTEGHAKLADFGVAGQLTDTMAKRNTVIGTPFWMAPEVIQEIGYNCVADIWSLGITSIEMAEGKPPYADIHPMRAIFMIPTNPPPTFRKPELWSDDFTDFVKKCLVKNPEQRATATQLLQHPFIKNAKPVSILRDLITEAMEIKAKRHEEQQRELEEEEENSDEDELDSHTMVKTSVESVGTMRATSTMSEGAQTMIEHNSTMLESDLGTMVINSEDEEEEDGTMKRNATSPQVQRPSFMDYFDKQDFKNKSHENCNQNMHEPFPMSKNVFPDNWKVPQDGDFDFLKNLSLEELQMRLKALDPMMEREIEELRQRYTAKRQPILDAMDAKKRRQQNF

Flag-tagged Mst1 = Flag-tagged Mst1 (UniProt Q13043); assay: as above

## Keap1 (kelch like ECH associated protein 1), endogenous in THP1 macrophages (from UniProt Q14145 1-624)
[1]
  binding: binds
Flag-tagged Mst1
  binding: binds
